From US9505768B2, “Compositions and methods for modulating TLR4” (The Regents of the University of California, priority 2012, dated 2016)
Some of these results come from one statement about several compounds together.

Test system: C57BL/6 mice
Details: injected with galactosamine

Q: Which mice survived does the source give for “monophosphoryl lipid A [MPLA, reference compound]” here?
A: more than 90%
